Record: PubChem BioAssay AID1259281 (Sanger Institute, 2017)
Shown is an unselected part of 794 deposited reagents. In the full data, 22 (2.8%) got an active call. 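Calls rest on knock-down alone only; drug synergy scores play no part in them.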 A number with no mark means an inactive call. Further read-outs or replicates are left out here. Not given: the amount of reagent, the time to read-out.

- Test: 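Find knock-downs that kill colorectal cancer cells alone or strengthen targeted drugs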 (primary screen)
- Cell system: human COLO678 colorectal cancer cell line
- Knock-down reagent: siRNA pool against human genes
- Challenge: anchor drugs at fixed doses: BYL719 1 µM, cetuximab 5 µg/ml or trametinib 10 nM; DMSO vehicle for the siRNA-alone arm
- Read-out: 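Surviving cells scaled to non-targeting siRNA control as replicate means; robust z-score for knock-down alone; synergy scores weigh knock-down with drug against the predicted combined effect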
- Direction: robust z-score, siRNA alone: higher = more viable cells; strongly negative means essential
- Hit rule: 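Essential (knock-down alone) when the siRNA-alone robust z-score is below -3; otherwise no change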
- Calls: active = essential (knock-down alone); inactive = no change

With knock-down of BRSK2 (BR serine/threonine kinase 2), the screen gave robust z-score, siRNA alone 0.473.
With knock-down of RUNX1 (RUNX family transcription factor 1) the results were robust z-score, siRNA alone 0.473.
NUAK1 (NUAK family kinase 1) showed robust z-score, siRNA alone 0.473.
Depletion of FBXW7 (F-box and WD repeat domain containing 7) resulted in: robust z-score, siRNA alone 0.473.
With knock-down of HIPK2 (homeodomain interacting protein kinase 2), the record shows robust z-score, siRNA alone 0.473.
Knock-down of FN3KRP (fructosamine 3 kinase related protein) came out at: robust z-score, siRNA alone 0.473.
Depletion of SF3B1 (splicing factor 3b subunit 1) gave: robust z-score, siRNA alone 0.473.
Silencing of RIPK2 (receptor interacting serine/threonine kinase 2) came out at: robust z-score, siRNA alone 0.473.
After knock-down of PIM1 (Pim-1 proto-oncogene, serine/threonine kinase) the results were robust z-score, siRNA alone 0.473.
SRPK2 (SRSF protein kinase 2) gave robust z-score, siRNA alone 0.473.
Knock-down of TGFBR2 (transforming growth factor beta receptor 2) gave: robust z-score, siRNA alone 0.473.
PKDCC (protein kinase domain containing, cytoplasmic) scored robust z-score, siRNA alone 0.473.
Depletion of RIOK1 (RIO kinase 1) gave: robust z-score, siRNA alone 0.473.
After knock-down of ETNK1 (ethanolamine kinase 1), the record shows robust z-score, siRNA alone 0.473.
EPHA3 (EPH receptor A3) gave robust z-score, siRNA alone -0.751.
With knock-down of TCF12 (transcription factor 12), the record shows robust z-score, siRNA alone 0.473.
After knock-down of EPHA6 (EPH receptor A6), the record shows robust z-score, siRNA alone -5.51 (active).
PRKCQ (protein kinase C theta) gave robust z-score, siRNA alone 0.473.
For POMK (protein O-mannose kinase), the values are robust z-score, siRNA alone 0.473.
IKBKE (inhibitor of nuclear factor kappa B kinase subunit epsilon) scored robust z-score, siRNA alone 0.0683.

Sorted by “robust z-score, siRNA alone” (low to high): 6 of the entries above.
NUAK1 (NUAK family kinase 1) → robust z-score, siRNA alone: 0.473
FBXW7 (F-box and WD repeat domain containing 7) → robust z-score, siRNA alone: 0.473
HIPK2 (homeodomain interacting protein kinase 2) → robust z-score, siRNA alone: 0.473
FN3KRP (fructosamine 3 kinase related protein) → robust z-score, siRNA alone: 0.473
SF3B1 (splicing factor 3b subunit 1) → robust z-score, siRNA alone: 0.473
RIPK2 (receptor interacting serine/threonine kinase 2) → robust z-score, siRNA alone: 0.473

The list goes on.
KMT2B (lysine methyltransferase 2B) gave robust z-score, siRNA alone 0.473.
Against PAK4 (p21 (RAC1) activated kinase 4), the values are robust z-score, siRNA alone 0.473.
Silencing of RPS6KA4 (ribosomal protein S6 kinase A4) resulted in: robust z-score, siRNA alone 0.473.
With knock-down of PIKFYVE (phosphoinositide kinase, FYVE-type zinc finger containing), the record shows robust z-score, siRNA alone 0.248.
After knock-down of RIPK4 (receptor interacting serine/threonine kinase 4), the screen gave robust z-score, siRNA alone 0.473.
Knock-down of CIB2 (calcium and integrin binding family member 2) resulted in: robust z-score, siRNA alone -1.18.
TPD52L3 (TPD52 like 3) scored robust z-score, siRNA alone 0.473.
With knock-down of CPNE3 (copine 3), the record shows robust z-score, siRNA alone 0.473.
CDKL1 (cyclin dependent kinase like 1) gave robust z-score, siRNA alone 0.473.
Against PRKCA (protein kinase C alpha) the deposit lists robust z-score, siRNA alone 0.473.
Depletion of ITSN1 (intersectin 1) gave: robust z-score, siRNA alone 0.473.
Against PHKG2 (phosphorylase kinase catalytic subunit gamma 2), the entry reads robust z-score, siRNA alone 0.298.
TRPM7 scored robust z-score, siRNA alone -1.5.
Against ERBB4 (erb-b2 receptor tyrosine kinase 4) the deposit lists robust z-score, siRNA alone 0.473.
With knock-down of GSK3B (glycogen synthase kinase 3 beta), the record shows robust z-score, siRNA alone 0.473.
STK10 (serine/threonine kinase 10) scored robust z-score, siRNA alone -2.08.
